# Measured data: PubChem BioAssay AID686938 (Drosophila RNAi Screening Center, 2013)
# Assay: 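Knock-downs reducing store-operated calcium influx in Drosophila cells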 (primary screen)
# Cell system: Drosophila S2R+ cells
# Reagent: long dsRNA against Drosophila genes, about 0.25 µg dsRNA per well, roughly 10,000 cells
# Duration: 5 days of knock-down before the calcium assay
# Treatment: thapsigargin (SERCA pump blocker) to empty calcium stores; entry signal taken 4 min after adding it
# Measurement: 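Duplicate raw fluo-4 intensities per well from a plate reader, at rest and four minutes after thapsigargin emptied calcium stores; entry-to-rest ratio filled for only some wells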
# Direction: calcium entry signal: higher = stronger calcium signal after store depletion; resting calcium signal: higher = higher resting calcium signal
# Active means: 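Called when the plate z-score of the entry-to-rest ratio, mean of duplicates, falls below −3; wells with low overall dye signal (Fmax z below −2) or more than five off-targets excluded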
# Calls: active = strongly reduced calcium entry; inactive = no strong reduction
# The screen tested about 23,000 reagents; this is an unselected part of those with a known target gene and a result. Over the whole deposit, 75 (0.33%) got an active call. 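Raw plate signals without normalisation; calls rest on plate z-scores that were not deposited; ratio present for only 364 wells.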 A plus sign joins genes that one reagent is predicted to hit. The record does not give: the dose of the treatment.
predicted target,dsRNA,"calcium entry signal, replicate 1 (fluorescence units)","calcium entry signal, replicate 2 (fluorescence units)","resting calcium signal, replicate 1 (fluorescence units)","resting calcium signal, replicate 2 (fluorescence units)",Call
DNAlig1,DRSC04518,2.96e7,,1.53e7,,inactive
rhea,DRSC11300,3.38e7,4.83e7,1.58e7,2.11e7,inactive
spen,DRSC00839,3.53e7,,1.96e7,,inactive
Pgant8,DRSC10801,3.76e7,4.73e7,1.60e7,1.92e7,inactive
CR10032,DRSC12499,4.45e7,3.76e7,2.12e7,1.75e7,inactive
Rbp6,DRSC09456,4.42e7,3.51e7,2.01e7,1.95e7,inactive
Rbp6,DRSC09462,4.48e7,5.16e7,2.11e7,2.70e7,inactive
Rbp6,DRSC10072,2.63e7,5.23e7,1.42e7,2.10e7,inactive
Rbp6,DRSC10073,2.54e7,5.27e7,1.45e7,1.81e7,inactive
Rbp6,DRSC10662,2.75e7,4.73e7,1.48e7,1.80e7,inactive
kis,DRSC00521,3.49e7,4.01e7,1.54e7,1.65e7,inactive
kis,DRSC00625,4.92e7,5.14e7,2.18e7,2.07e7,inactive
kis,DRSC00823,3.43e7,,1.77e7,,inactive
TpnC25D,DRSC02965,3.33e7,4.41e7,1.65e7,2.06e7,inactive
frm,DRSC09753,4.67e7,3.51e7,2.97e7,1.74e7,inactive
Menl-2 + Menl-1,DRSC07469,4.90e7,4.74e7,1.98e7,2.09e7,inactive
Menl-2 + Menl-1,DRSC07470,4.59e7,5.34e7,2.01e7,2.29e7,inactive
Dh31,DRSC02196,3.92e7,5.90e7,1.93e7,2.41e7,inactive
CG7914,DRSC20068,5.50e7,4.32e7,2.55e7,1.86e7,inactive
CG4115,DRSC15545,3.74e7,3.36e7,1.84e7,1.88e7,inactive
hwt,DRSC19386,4.47e7,2.99e7,2.08e7,1.54e7,inactive
hwt,DRSC19695,2.87e7,5.66e7,1.51e7,2.53e7,inactive
Idgf3,DRSC03351,3.68e7,,1.80e7,,inactive
CG3355,DRSC00598,2.43e7,3.08e7,1.34e7,1.50e7,inactive
Ugt35C1,DRSC16080,3.35e7,4.55e7,1.57e7,2.05e7,inactive
Phyhd1,DRSC14911,3.02e7,3.76e7,1.45e7,1.86e7,inactive
GstD6,DRSC16687,2.99e7,2.83e7,1.51e7,1.57e7,inactive
Mst84B,DRSC12579,4.52e7,3.89e7,2.29e7,1.81e7,inactive
yellow-g2,DRSC08338,3.02e7,4.32e7,1.62e7,1.98e7,inactive
Hexo2,DRSC18671,3.41e7,3.86e7,1.71e7,1.78e7,inactive
ND-13A,DRSC03110,4.27e7,4.14e7,1.88e7,1.81e7,inactive
CG13003,DRSC19522,3.30e7,3.50e7,1.65e7,1.46e7,inactive
CG5196,DRSC15735,3.05e7,3.48e7,1.50e7,1.81e7,inactive
CG7768,DRSC10914,2.36e7,3.41e7,1.21e7,2.30e7,inactive
Sin1,DRSC05965,4.50e7,4.26e7,2.01e7,2.12e7,inactive
Oli,DRSC02866,4.74e7,,2.09e7,,inactive
ppk11,DRSC02737,3.26e7,4.52e7,1.59e7,1.88e7,inactive
CG33465,DRSC05587,4.81e7,3.59e7,4.33e7,1.74e7,inactive
firl,DRSC02428,3.36e7,2.08e7,1.56e7,9.86e6,inactive
ihog,DRSC03157,3.94e7,,2.16e7,,inactive

Reformatted: results already given
{"predicted target":"CG4115","dsRNA":"DRSC15545","calcium entry signal, replicate 1 (fluorescence units)":3.74e7,"calcium entry signal, replicate 2 (fluorescence units)":3.36e7,"resting calcium signal, replicate 1 (fluorescence units)":1.84e7,"resting calcium signal, replicate 2 (fluorescence units)":1.88e7,"Call":"inactive"}
{"predicted target":"hwt","dsRNA":"DRSC19386","calcium entry signal, replicate 1 (fluorescence units)":4.47e7,"calcium entry signal, replicate 2 (fluorescence units)":2.99e7,"resting calcium signal, replicate 1 (fluorescence units)":2.08e7,"resting calcium signal, replicate 2 (fluorescence units)":1.54e7,"Call":"inactive"}
